Experiment: general procedure: Fmoc solid-phase peptide synthesis; Fmoc-Met-Rink amide MBHA resin; HBTU
Conditions: whole synthesis, scale of the general procedure 2 mmol

Arg-Trp-Arg-Asn-Met
final purity (method not given): >98%

— US10526370B2 (priority 2015, dated 2020)
